From PubChem BioAssay AID2685 (National Center for Advancing Translational Sciences (NCATS), 2010) come the findings set out here.

The list shows a part of the results. The main result of the screen is listed elsewhere. These columns were measured beside it and carry no call. The list favours compounds with an active or inconclusive main result. Words in brackets tell the shape of the fitted curve; partial curves, single points and poor fits give uncertain potencies.

A short description of this test: qHTS Assay for Lipid Storage Modulators in Drosophila S3 Cells.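 For cell number change: cells counted by Cell Tracker Red CMTPX staining in the red channel.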 The conditions noted are these: BODIPY lipid droplet fluorescence, 18-24 h; for cell number change: measured here: cell count max response, cells fed with added oleic acid. In short, it runs like this:
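Laser-scanning cytometry quantifies lipid droplet accumulation (500–530 nm total intensity; droplet/cell object ratio) in oleic acid-fed (400 uM added) Drosophila S3 cells treated with a concentration series. 20 uM Triacsin C defined 100% inhibition.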
On the technique in general: Quantitative high-throughput screening tests each substance at several concentrations.

Where [1] appears, read: measured here: cell number channel AC50, cells fed with added oleic acid.
[2] abbreviates: measured here: lipid fluorescence (Fed channel) AC50, cells fed with added oleic acid.

For `Clc1ccc(COc2cccc(CNCc3ccncc3)c2)cc1`, the cell number change came to 46.8%. The AC50 (as a rule, the midpoint of the concentration-response curve, whichever way the signal moves) under setting [1] is 4.11 µM [falling, single point].
Consider `CCOC(=O)c1[nH]c(C)c(C(=O)Nc2ccc(F)cc2)c1C`, for which the cell number change was 77.3%. Also, under setting [1], the AC50 was 4.11 µM [rising, full curve]. In addition, under setting [2], the AC50 is 23.1 µM [rising, single point].
For `O=C(O)CCNc1cc2ccccc2cc1C(=O)O`, the cell number change was determined as 6.99%. The AC50 under setting [2] is 0.116 µM [rising, full curve, poor fit].
`CC(=O)Nc1ccc(C2=NN(C)C(=NCc3ccccc3)SC2)cc1`: the cell number change stood at 20.6%.
For `Cc1ccc(C(=O)N/C(=C\c2ccc(Cl)cc2)C(=O)NCCN2CCOCC2)cc1`, the cell number change came to 5.65%. The AC50 under setting [2] was 0.58 µM [falling, single point].
Turning to `CN1CCc2c(sc(NC(=O)c3ccc(S(=O)(=O)N4CCCC4)cc3)c2C(N)=O)C1`, the cell number change was -26.4%. Besides, the AC50 under setting [2] is 6.51 µM [rising, single point].
As for `Cc1ccc(NC(=O)CSc2nncc3ccccc23)cc1`, the cell number change was -6.94%. Besides, the AC50 under setting [2] is 29.1 µM [falling, single point].
Regarding `CCCNC(=O)Cc1c(O)c2ccccc2[nH]c1=O`, the cell number change is -7.47%. Moreover, the AC50 under setting [1] was 0.164 µM [falling, full curve].
As to `O=C(C/C=N/OCc1ccc(Cl)cc1Cl)c1ccccc1`, the cell number change was determined as 1.87%.
Turning to `N#Cc1ccc(/C=N/NC(=O)CCc2ccc(S(=O)(=O)N3CCOCC3)cc2)cc1`, the cell number change was determined as 17.2%. The AC50 under setting [2] was 9.2 µM [rising, partial curve, poor fit].
In the case of `COc1ccc(CCN2C(=O)CC(Nc3ccc(N4CCOCC4)cc3)C2=O)cc1OC` (centres undefined), the cell number change is -36.9%. Further, under setting [1], the AC50 is 5.8 µM [falling, full curve, poor fit]. Further, under setting [2], the AC50 is 6.51 µM [rising, partial curve].
For the compound `CCCCN1C(=O)/C(=C/C=C2\N(C)c3ccccc3C2(C)C)SC1=S`, the cell number change is -71.2%. In addition, the AC50 under setting [1] was 2.31 µM [falling, full curve]. Further, under setting [2], the concentration at half-maximal activity (AC50) is 1.46 µM [falling, partial curve].
As to `COc1ccc(C(=O)NCCNc2ccc([N+](=O)[O-])cc2)cc1OC`, the cell number change is -16.1%. In addition, the AC50 under setting [2] is 23.1 µM [falling, single point].
Take `[O-]/C(=C(\C(=S)Nc1ccc(SC(F)F)cc1)[n+]1cccc(CO)c1)c1ccc(Cl)s1`: the cell number change was -5.17%.
Take `COC(=O)c1nc(N)sc1C(C)C`: the cell number change amounted to 11.7%. Moreover, the AC50 under setting [2] was 0.58 µM [rising, full curve].
For `CC(C)CNC(=O)NC1C(NC(=O)NCC(C)C)N(C)C(=O)N1C` (centres undefined), the cell number change was -0.897%. Besides, the AC50 under setting [2] is 3.66 µM [falling, single point].
`Cc1cc(C(=O)OCC(=O)c2ccc(Br)s2)no1`: the cell number change was -5.02%. The AC50 under setting [2] is 3.66 µM [rising, single point].
With `COc1ccccc1C(=O)Nc1cc(C)c(OCC(=O)N2CCOCC2)c(C)c1`, the cell number change is -31.5%. Further, the AC50 under setting [1] was 16.4 µM [falling, single point].
Turning to `COc1cc(-c2nc3cnccn3c2Nc2ccc(C(C)C)cc2)ccc1O`, the cell number change was -89.1%. For the same compound, the AC50 under setting [1] was 23.1 µM [falling, single point].
With `C=CCSc1ncnc2sc(C)c(C)c12`, the cell number change was -7.53%. Further, the concentration at half-maximal activity (AC50) under setting [2] is 5.8 µM [rising, single point].
`CSc1ccc(NC(=O)NCCN2CCc3ccccc3C2)cc1`: the cell number change stood at 40.9%.
`COc1ccc(OCc2nnc3n2N=C(c2ccc(OC)cc2)CS3)cc1`: the cell number change is -10.6%. Further, under setting [1], the AC50 is 2.06 µM [rising, partial curve, poor fit]. Besides, the AC50 under setting [2] was 2.31 µM [rising, partial curve].
With `O=C(CN1CCCCC1)NCC(=O)Nc1ccc(F)c(F)c1F`, the cell number change was 9.71%. Also, under setting [2], the AC50 was 2.31 µM [falling, partial curve].
Consider `Cc1cc(C)nc(-n2nc(C)c(Br)c2Nc2ccc(Br)cc2)n1`, for which the cell number change worked out at 6.59%. Further, the AC50 under setting [1] is 0.092 µM [rising, full curve]. Moreover, the AC50 under setting [2] was 0.13 µM [rising, full curve].
Take `COc1ccc(C(=O)Nc2c3c(nn2-c2cccc(Cl)c2)CS(=O)C3)cc1` (centres undefined): the AC50 is, setting by setting: under setting [1], 2.06 µM [rising, partial curve]; under setting [2], 4.61 µM [rising, partial curve].
Take `CC(=O)Nc1ccccc1C(=O)C(=O)Nc1ccc(F)c(Cl)c1`: the cell number change was -3.3%. The AC50 under setting [2] was 25.9 µM [rising, single point].
As for `O=C(CN1CCN(c2ncccn2)CC1)Nc1ccccc1C(F)(F)F`, the cell number change was -24.1%. Moreover, under setting [2], the AC50 is 29.1 µM [falling, single point].
As to `S=C(Nc1ccc(Cl)cc1)NC1CC2CCCC(C1)N2C1CCCC1` (centres undefined), the cell number change was -3.45%.
On to `Nc1nc(CN2CCN(c3ccccc3F)CC2)nc(N2CCCc3ccccc32)n1`, for which the cell number change is -4.46%. Further, the AC50 under setting [2] was 0.206 µM [falling, partial curve, poor fit].
For the compound `COc1ccc([C@H]2[C@H](C(=O)OC(C)(C)C)N3N=Cc4ccccc4C3C23C(=O)c2ccccc2C3=O)c(OC)c1` (some centres undefined), the cell number change was -20.5%. The AC50 under setting [2] is 29.1 µM [falling, single point].
`CCOc1cccc(C=NCCc2ccc(OC)c(OC)c2)c1O`: the cell number change was found to be 18.1%.
On to `CNC(=O)c1ccc(-c2ccc(F)cc2)s1`, for which the cell number change was -15.1%. For the same compound, under setting [2], the AC50 was 29.1 µM [rising, single point].
As for `CC(C)CCn1c(N2CCN(Cc3ccccc3)CC2)nc2c1c(=O)[nH]c(=O)n2C`, the cell number change amounted to 20.9%. Moreover, the AC50 under setting [2] was 18.4 µM [rising, partial curve].
As to `COc1ccc(NC(=O)c2ccco2)cc1NC(=O)c1cccs1`, the cell number change is -9.53%.
For the compound `CCC(C(=O)NC1CCCC1)N(C(=O)c1snc(C(N)=O)c1N)c1ccc(OC)c(OC)c1` (centres undefined), the cell number change was found to be 5.56%. In addition, the AC50 under setting [2] is 5.17 µM [falling, full curve].
On to `Cc1ccc(Oc2ccc(Cl)cc2NC(=O)c2ccc(F)cc2F)cc1`, for which the cell number change amounted to 14.9%. For the same compound, under setting [2], the AC50 is 29.1 µM [rising, single point].
For the compound `CCCNS(=O)(=O)c1ccc(OC)c(Cl)c1Cl`, the cell number change turned out to be 27.3%.
As to `COc1ccc(NC(=S)N2CCc3ccccc3C2)cc1OC`, the cell number change was determined as 37.2%.
For the compound `CCOc1ncccc1C(=O)Nc1nc(SC)ns1`, the cell number change was 96.2%. For the same compound, the AC50 under setting [1] is 4.61 µM [rising, full curve]. Moreover, under setting [2], the AC50 is 0.291 µM [rising, single point].
For `O=[N+]([O-])c1cccc(C2NCC(c3ccccc3Cl)c3c2[nH]c2ccccc32)c1` (centres undefined), the cell number change stood at 61.7%.
As for `CCCCCCCC[n+]1cccc2c3ccccc3ccc21`, the cell number change is -46.9%. The AC50 under setting [1] was 5.17 µM [falling, full curve]. The AC50 under setting [2] was 3.66 µM [falling, full curve].
